Measured data: PubChem BioAssay AID1224830 (NIAID, 2016)

Test: 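Host factors that control LPS-induced TNF expression in human macrophages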 (primary screen)
System: human THP-1 monocytic leukaemia cells, TNF dual-luciferase reporter clone, PMA-differentiated to macrophage-like cells
Reagent: siRNA pool against human genes, 50 nM
Duration: LPS for 4 h, given about 3 days after siRNA transfection
Challenge: bacterial LPS (TLR4 ligand), 10 ng/ml
Detection: 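Ratio of firefly to renilla light, scaled to the plate median and expressed as a robust z-score per replicate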
Direction: TNF reporter robust z-score: higher = stronger TNF reporter response to LPS
Active means: 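a well is active when its z-score exceeds 2.8 or falls below -1.5; control wells carry no call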
Here is an unselected part of about 18,000 reagents. About 2,900 of all reagents (16%) were called active. 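Calls are made per well; low scores hint the gene aids the LPS response, high scores that it dampens it.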 Unmarked entries are inactive. Repeated entries: four replicate wells of each siRNA pool.

gene,PubChem SID,TNF reporter robust z-score
SPINK6 (GeneID 404203),SID315464836,0.68
SPINK6 (GeneID 404203),SID315464836,-0.77
SPINK6 (GeneID 404203),SID315464836,-0.49
SPINK6 (GeneID 404203),SID315464836,-0.25
ARL6IP6 (GeneID 151188),SID315462479,-0.34
ARL6IP6 (GeneID 151188),SID315462479,-0.75
ARL6IP6 (GeneID 151188),SID315462479,0.97
ARL6IP6 (GeneID 151188),SID315462479,0.15
PDLIM5 (GeneID 10611),SID315454233,-0.42
PDLIM5 (GeneID 10611),SID315454233,0.63
PDLIM5 (GeneID 10611),SID315454233,-1.09
PDLIM5 (GeneID 10611),SID315454233,0.58
FCGRT (GeneID 2217),SID315448656,-1.25
FCGRT (GeneID 2217),SID315448656,-0.58
FCGRT (GeneID 2217),SID315448656,-1.15
FCGRT (GeneID 2217),SID315448656,-1.01
ACKR3 (GeneID 57007),SID315458223,0.44
ACKR3 (GeneID 57007),SID315458223,0.14
ACKR3 (GeneID 57007),SID315458223,-0.19
ACKR3 (GeneID 57007),SID315458223,-0.63
LTB4R (GeneID 1241),SID315447990,-1.08
LTB4R (GeneID 1241),SID315447990,-1.04
LTB4R (GeneID 1241),SID315447990,-1.07
LTB4R (GeneID 1241),SID315447990,-1.45
KCTD16 (GeneID 57528),SID315458440,0
KCTD16 (GeneID 57528),SID315458440,-0.23
KCTD16 (GeneID 57528),SID315458440,0.07
KCTD16 (GeneID 57528),SID315458440,1.29
STT3A (GeneID 3703),SID315449570,0.18
STT3A (GeneID 3703),SID315449570,0.57
STT3A (GeneID 3703),SID315449570,0.44
STT3A (GeneID 3703),SID315449570,0.74
FAM89A (GeneID 375061),SID315464355,1.94
FAM89A (GeneID 375061),SID315464355,0
FAM89A (GeneID 375061),SID315464355,0.22
FAM89A (GeneID 375061),SID315464355,1
AMDHD1 (GeneID 144193),SID315462209,1.39
AMDHD1 (GeneID 144193),SID315462209,1.76
AMDHD1 (GeneID 144193),SID315462209,2.16
AMDHD1 (GeneID 144193),SID315462209,2.01
CLEC2D (GeneID 29121),SID315456157,-0.8
CLEC2D (GeneID 29121),SID315456157,-0.32
CLEC2D (GeneID 29121),SID315456157,-0.95
CLEC2D (GeneID 29121),SID315456157,-0.17
GPLD1 (GeneID 2822),SID315448981,-0.51
GPLD1 (GeneID 2822),SID315448981,0.27
GPLD1 (GeneID 2822),SID315448981,-0.28
GPLD1 (GeneID 2822),SID315448981,-0.02
PTGDR2 (GeneID 11251),SID315454718,0.03
PTGDR2 (GeneID 11251),SID315454718,-0.9
PTGDR2 (GeneID 11251),SID315454718,-0.91
PTGDR2 (GeneID 11251),SID315454718,-0.73
ROBO3 (GeneID 64221),SID315458872,0.03
ROBO3 (GeneID 64221),SID315458872,0.37
ROBO3 (GeneID 64221),SID315458872,-0.24
ROBO3 (GeneID 64221),SID315458872,0.58
MED16 (GeneID 10025),SID315453763,-1.03
MED16 (GeneID 10025),SID315453763,-0.51
MED16 (GeneID 10025),SID315453763,-0.21
MED16 (GeneID 10025),SID315453763,-0.08
PDE6A (GeneID 5145),SID315450478,-1.77 (active)
PDE6A (GeneID 5145),SID315450478,-1.43
PDE6A (GeneID 5145),SID315450478,-1.08
PDE6A (GeneID 5145),SID315450478,-1.22
POGLUT2 (GeneID 79070),SID315459190,1.08
POGLUT2 (GeneID 79070),SID315459190,0.01
POGLUT2 (GeneID 79070),SID315459190,-0.74
POGLUT2 (GeneID 79070),SID315459190,1.16

Entries above marked active, once more:
gene,PubChem SID,TNF reporter robust z-score
PDE6A (GeneID 5145),SID315450478,-1.77 (active)

Further results follow:
gene,PubChem SID,TNF reporter robust z-score
OR51E1 (GeneID 143503),SID315462189,-0.2
OR51E1 (GeneID 143503),SID315462189,2.28
OR51E1 (GeneID 143503),SID315462189,1.65
OR51E1 (GeneID 143503),SID315462189,0.43
IFNB1 (GeneID 3456),SID315449422,-0.67
IFNB1 (GeneID 3456),SID315449422,-0.7
IFNB1 (GeneID 3456),SID315449422,-1.37
IFNB1 (GeneID 3456),SID315449422,-0.24
CLNS1A (GeneID 1207),SID315447973,0.66
CLNS1A (GeneID 1207),SID315447973,0.99
CLNS1A (GeneID 1207),SID315447973,0.54
CLNS1A (GeneID 1207),SID315447973,0.9
SSX7 (GeneID 280658),SID315463613,0.54
SSX7 (GeneID 280658),SID315463613,1.15
SSX7 (GeneID 280658),SID315463613,-0.3
SSX7 (GeneID 280658),SID315463613,-0.23
PRIMA1 (GeneID 145270),SID315462239,-1.01
PRIMA1 (GeneID 145270),SID315462239,-0.75
PRIMA1 (GeneID 145270),SID315462239,-0.01
PRIMA1 (GeneID 145270),SID315462239,0.34
GANC (GeneID 2595),SID315448833,0.56
GANC (GeneID 2595),SID315448833,-0.04
GANC (GeneID 2595),SID315448833,-1.26
GANC (GeneID 2595),SID315448833,-0.02
SLC25A28 (GeneID 81894),SID315459974,-1
SLC25A28 (GeneID 81894),SID315459974,-0.39
SLC25A28 (GeneID 81894),SID315459974,-0.69
SLC25A28 (GeneID 81894),SID315459974,-0.47
PTCD1 (GeneID 26024),SID315455622,-0.23
PTCD1 (GeneID 26024),SID315455622,-0.43
PTCD1 (GeneID 26024),SID315455622,-0.19
PTCD1 (GeneID 26024),SID315455622,0.49
CEP85 (GeneID 64793),SID315459001,0.48
CEP85 (GeneID 64793),SID315459001,1.41
CEP85 (GeneID 64793),SID315459001,1.01
CEP85 (GeneID 64793),SID315459001,-0.19
LCE3E (GeneID 353145),SID315464278,-1.24
LCE3E (GeneID 353145),SID315464278,-0.64
LCE3E (GeneID 353145),SID315464278,-0.91
LCE3E (GeneID 353145),SID315464278,0.04
FNTA (GeneID 2339),SID315448743,0.58
FNTA (GeneID 2339),SID315448743,1.07
FNTA (GeneID 2339),SID315448743,-0.37
FNTA (GeneID 2339),SID315448743,1.62
